Measurements: the supplement of paper PMC10849652
Some of the results follow.

Protein sequences, listed by entry. Tags and fused reporters are not part of them. Lines headed by an entry give the natural chain unless they say otherwise; changes in a name come on top.
UniProt P02771: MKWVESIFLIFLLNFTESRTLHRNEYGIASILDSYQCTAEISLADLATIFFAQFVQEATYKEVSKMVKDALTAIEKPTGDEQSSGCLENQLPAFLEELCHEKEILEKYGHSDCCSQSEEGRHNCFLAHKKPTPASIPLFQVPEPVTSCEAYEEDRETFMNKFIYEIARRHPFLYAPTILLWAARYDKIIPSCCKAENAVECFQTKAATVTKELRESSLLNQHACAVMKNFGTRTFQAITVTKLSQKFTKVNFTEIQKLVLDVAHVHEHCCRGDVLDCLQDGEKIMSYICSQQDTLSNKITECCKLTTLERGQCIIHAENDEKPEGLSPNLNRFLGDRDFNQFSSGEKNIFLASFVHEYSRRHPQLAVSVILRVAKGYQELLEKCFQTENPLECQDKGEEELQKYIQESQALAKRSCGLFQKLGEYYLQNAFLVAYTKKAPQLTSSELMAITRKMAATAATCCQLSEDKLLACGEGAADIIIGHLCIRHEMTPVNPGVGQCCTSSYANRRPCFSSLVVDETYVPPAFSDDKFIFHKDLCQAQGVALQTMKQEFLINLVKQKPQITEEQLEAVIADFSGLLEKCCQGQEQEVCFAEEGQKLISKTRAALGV
UniProt Q8TCU4: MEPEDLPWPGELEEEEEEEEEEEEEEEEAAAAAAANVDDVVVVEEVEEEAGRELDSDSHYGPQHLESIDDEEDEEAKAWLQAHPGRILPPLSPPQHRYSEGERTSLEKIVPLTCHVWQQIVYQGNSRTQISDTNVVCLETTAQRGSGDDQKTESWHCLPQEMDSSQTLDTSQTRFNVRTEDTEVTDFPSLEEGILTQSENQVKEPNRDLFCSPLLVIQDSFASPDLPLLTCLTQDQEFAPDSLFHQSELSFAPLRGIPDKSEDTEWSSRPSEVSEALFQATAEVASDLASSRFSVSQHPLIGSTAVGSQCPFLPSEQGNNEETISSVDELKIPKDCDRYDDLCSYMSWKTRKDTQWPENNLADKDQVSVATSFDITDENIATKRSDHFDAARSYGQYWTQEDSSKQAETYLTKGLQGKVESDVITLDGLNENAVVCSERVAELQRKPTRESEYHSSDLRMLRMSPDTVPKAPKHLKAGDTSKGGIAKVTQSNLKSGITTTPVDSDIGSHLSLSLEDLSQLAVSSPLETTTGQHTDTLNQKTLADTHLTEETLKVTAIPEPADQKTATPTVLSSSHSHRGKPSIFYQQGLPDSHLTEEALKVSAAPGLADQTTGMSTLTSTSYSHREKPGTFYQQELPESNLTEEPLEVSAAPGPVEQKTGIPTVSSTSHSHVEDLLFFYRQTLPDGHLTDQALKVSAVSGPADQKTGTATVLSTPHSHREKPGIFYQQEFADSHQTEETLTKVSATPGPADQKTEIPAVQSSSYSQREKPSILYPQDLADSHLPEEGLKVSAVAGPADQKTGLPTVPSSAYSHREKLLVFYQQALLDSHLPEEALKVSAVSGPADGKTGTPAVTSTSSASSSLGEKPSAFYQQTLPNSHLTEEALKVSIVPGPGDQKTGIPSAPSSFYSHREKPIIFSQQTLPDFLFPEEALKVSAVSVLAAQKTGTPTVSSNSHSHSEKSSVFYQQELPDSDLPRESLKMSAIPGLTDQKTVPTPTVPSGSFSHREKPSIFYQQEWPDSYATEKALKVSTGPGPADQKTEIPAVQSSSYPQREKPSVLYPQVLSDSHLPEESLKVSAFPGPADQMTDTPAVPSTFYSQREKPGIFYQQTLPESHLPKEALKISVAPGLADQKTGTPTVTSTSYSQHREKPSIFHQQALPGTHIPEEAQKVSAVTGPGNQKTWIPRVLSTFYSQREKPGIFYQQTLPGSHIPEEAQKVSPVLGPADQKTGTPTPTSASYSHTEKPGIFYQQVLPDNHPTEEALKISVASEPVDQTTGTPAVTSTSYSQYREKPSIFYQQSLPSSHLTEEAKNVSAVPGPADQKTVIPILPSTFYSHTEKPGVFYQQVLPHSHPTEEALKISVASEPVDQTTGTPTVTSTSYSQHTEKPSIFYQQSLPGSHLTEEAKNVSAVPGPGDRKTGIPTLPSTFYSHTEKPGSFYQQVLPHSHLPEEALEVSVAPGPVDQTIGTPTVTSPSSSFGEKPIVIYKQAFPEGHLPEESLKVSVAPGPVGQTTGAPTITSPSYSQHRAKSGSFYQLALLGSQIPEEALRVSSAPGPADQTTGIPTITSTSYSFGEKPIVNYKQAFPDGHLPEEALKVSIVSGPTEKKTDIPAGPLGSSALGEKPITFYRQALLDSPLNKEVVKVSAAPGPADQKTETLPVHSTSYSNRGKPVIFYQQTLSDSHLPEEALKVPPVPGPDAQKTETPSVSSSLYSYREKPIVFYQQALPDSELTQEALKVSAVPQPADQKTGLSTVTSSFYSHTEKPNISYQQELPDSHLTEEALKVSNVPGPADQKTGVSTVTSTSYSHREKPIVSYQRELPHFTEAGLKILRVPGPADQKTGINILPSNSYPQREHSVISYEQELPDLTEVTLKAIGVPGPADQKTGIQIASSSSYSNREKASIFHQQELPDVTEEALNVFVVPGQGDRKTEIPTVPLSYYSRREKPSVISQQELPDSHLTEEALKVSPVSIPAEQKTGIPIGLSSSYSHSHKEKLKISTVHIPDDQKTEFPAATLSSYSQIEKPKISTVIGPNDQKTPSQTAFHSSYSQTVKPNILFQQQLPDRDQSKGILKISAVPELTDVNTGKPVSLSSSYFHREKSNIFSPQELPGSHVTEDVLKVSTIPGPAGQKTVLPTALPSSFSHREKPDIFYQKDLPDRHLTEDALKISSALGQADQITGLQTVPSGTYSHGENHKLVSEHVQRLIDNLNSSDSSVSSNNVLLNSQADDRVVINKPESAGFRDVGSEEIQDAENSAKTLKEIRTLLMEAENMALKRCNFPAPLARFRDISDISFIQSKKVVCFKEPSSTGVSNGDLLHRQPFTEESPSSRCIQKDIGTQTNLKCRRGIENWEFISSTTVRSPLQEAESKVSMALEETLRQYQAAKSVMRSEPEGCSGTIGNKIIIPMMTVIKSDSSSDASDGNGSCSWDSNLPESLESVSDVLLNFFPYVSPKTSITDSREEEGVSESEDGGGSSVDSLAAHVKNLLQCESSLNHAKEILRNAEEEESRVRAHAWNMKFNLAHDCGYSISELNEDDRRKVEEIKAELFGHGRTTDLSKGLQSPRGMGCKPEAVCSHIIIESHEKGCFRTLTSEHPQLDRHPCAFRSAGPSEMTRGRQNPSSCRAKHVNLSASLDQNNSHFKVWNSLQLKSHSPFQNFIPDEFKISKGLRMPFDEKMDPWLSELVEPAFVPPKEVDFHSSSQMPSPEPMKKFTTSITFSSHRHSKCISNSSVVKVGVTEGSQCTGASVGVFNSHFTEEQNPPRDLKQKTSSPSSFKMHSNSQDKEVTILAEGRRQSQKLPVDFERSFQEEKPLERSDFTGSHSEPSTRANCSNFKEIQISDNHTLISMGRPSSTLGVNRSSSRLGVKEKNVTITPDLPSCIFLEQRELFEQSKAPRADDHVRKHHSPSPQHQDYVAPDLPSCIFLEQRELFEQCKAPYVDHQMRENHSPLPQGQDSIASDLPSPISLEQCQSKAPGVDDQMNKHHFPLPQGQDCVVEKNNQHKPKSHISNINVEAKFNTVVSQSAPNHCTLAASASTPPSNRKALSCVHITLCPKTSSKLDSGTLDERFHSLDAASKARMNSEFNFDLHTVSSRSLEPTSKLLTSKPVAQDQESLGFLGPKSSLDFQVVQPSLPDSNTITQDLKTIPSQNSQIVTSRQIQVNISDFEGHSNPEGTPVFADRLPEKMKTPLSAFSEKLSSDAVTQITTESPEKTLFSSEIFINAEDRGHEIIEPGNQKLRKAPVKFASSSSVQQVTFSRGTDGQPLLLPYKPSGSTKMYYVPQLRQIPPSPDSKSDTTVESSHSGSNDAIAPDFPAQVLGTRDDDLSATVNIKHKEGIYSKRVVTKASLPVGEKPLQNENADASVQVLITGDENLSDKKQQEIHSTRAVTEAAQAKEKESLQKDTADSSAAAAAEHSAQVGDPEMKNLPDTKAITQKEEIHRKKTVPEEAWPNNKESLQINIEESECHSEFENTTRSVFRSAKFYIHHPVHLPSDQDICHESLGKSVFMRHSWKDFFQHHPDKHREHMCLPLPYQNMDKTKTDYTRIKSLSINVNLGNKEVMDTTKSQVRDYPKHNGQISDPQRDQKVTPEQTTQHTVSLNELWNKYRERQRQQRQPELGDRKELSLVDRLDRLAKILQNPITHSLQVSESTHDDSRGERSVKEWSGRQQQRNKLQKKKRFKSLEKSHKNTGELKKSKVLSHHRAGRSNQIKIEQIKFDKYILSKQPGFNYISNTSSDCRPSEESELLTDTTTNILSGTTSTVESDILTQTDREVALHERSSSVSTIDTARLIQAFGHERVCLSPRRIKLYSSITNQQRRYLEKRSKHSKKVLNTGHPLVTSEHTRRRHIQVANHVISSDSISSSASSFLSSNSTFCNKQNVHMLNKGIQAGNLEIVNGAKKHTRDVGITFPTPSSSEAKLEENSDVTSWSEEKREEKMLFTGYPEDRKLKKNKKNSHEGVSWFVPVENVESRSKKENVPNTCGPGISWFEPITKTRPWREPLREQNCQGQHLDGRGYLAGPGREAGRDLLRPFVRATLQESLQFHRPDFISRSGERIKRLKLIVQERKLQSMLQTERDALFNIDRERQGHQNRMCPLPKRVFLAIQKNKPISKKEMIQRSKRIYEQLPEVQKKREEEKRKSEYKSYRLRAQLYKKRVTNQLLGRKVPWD
UniProt Q9UIJ7: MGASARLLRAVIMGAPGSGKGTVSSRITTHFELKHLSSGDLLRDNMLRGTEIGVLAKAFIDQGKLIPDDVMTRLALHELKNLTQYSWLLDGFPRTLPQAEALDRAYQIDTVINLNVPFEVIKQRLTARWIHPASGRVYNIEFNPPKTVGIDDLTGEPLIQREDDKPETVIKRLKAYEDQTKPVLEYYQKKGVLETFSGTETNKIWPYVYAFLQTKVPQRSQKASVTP
UniProt Q9UM13, whole entry, looked up: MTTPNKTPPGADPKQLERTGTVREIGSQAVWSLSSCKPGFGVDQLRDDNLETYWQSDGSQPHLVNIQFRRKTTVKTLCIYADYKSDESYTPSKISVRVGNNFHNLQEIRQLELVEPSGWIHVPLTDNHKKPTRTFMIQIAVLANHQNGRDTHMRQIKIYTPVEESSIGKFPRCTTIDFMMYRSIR
UniProt Q3KRA9: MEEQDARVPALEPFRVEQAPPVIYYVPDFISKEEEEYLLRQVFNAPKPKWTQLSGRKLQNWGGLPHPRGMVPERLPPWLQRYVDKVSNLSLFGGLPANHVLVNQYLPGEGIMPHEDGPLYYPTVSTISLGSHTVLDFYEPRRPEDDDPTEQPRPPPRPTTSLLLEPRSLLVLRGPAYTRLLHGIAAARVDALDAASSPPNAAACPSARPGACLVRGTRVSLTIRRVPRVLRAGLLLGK
UniProt Q9NRZ5: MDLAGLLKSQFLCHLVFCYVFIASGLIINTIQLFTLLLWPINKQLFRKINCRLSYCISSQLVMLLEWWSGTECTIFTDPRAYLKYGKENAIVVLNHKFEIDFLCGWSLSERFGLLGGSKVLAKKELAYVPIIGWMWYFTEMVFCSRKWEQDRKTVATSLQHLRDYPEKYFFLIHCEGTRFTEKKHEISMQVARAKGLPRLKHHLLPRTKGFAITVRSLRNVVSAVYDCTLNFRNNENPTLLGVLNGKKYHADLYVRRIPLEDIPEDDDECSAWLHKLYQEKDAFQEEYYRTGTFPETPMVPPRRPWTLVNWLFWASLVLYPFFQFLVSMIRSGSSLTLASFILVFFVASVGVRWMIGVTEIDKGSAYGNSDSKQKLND
UniProt P23526: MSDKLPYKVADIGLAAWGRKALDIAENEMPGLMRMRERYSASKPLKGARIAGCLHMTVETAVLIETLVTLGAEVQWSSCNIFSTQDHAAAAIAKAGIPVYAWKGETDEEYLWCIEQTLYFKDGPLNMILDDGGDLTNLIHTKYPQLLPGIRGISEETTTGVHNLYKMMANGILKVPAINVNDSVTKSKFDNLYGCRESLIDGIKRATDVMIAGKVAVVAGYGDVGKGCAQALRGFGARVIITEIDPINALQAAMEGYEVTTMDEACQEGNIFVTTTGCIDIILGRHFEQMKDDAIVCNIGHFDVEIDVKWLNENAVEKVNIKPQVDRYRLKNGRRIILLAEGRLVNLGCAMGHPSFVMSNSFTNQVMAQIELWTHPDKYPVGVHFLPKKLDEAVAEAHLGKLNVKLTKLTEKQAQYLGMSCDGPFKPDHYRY
UniProt P14550: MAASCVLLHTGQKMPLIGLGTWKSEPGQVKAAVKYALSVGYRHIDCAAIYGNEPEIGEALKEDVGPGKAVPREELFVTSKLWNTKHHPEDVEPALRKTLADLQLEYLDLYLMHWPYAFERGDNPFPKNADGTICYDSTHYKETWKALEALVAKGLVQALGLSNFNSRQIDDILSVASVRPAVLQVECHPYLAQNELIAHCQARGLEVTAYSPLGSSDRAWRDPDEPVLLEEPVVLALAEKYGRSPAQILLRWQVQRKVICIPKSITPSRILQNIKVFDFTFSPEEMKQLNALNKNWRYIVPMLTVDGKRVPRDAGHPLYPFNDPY

compound: c1cn2cc(-c3ccc4cn[nH]c4c3)nc(Nc3ccc(N4CCOCC4)cc3)c2n1 [entospletinib]; assay: log2 fold change, soluble protein after heating vs DMSO (PISA); higher = thermal stabilisation; K562 cells, 10 uM, 30 min; active = over 0.2 and 3.5 SD of the protein, either way, in both replicates (recomputed)
In short: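 Soluble protein was defined as the supernatant after 21,000xg for 90 min. It came from K562 cells at 2×10^6 cells/mL given 10 μM compound for 30 min, heated in aliquots for 3 min across 48°C-58°C, pooled, and extracted in PBS with 0.5% NP-40 at 4°C, and was quantified by TMTpro 16plex LC-MS/MS with equalised channel sums. Thermal stability against control samples, from duplicates, is reported as log2 fold change.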

log2 fold change, inactive:
AFP (UniProt P02771) 0.374
ALMS1 (UniProt Q8TCU4) 0
ADGRE2 (UniProt Q9UHX3) 0.023
ALKBH2 (UniProt Q6NS38) 0.077
AK3 (UniProt Q9UIJ7) 0.025
ANAPC10 (UniProt Q9UM13) -0.158
ALDOA (UniProt P04075) 0.001
ALG12 (UniProt Q9BV10) -0.008
ALKBH8 isoform 4 (UniProt Q96BT7) 0.045
AKR1B1 (UniProt P15121) 0.018
ALKBH3 (UniProt Q96Q83) 0.016
ALG6 (UniProt Q9Y672) -0.076
ALDOA isoform 2 (UniProt P04075) -0.03
AGO3 (UniProt Q9H9G7) 0.093
ALKBH6 isoform 2 (UniProt Q3KRA9) -0.152
AGTRAP isoform 2 (UniProt Q6RW13) 0.018
ADSS1 (UniProt Q8N142) 0.027
ALDH1L2 (UniProt Q3SY69) 0.034
AKT1S1 isoform 3 (UniProt Q96B36) 0.026
ALYREF (UniProt Q86V81) 0.09
AEBP2 (UniProt Q6ZN18) -0.031
AHCTF1 isoform 2 (UniProt Q8WYP5) -0.093
ADGB (UniProt Q8N7X0) 0.201
AIMP1 isoform 2 (UniProt Q12904) 0.119
ALOX12B (UniProt O75342) 0.015
AGPAT4 (UniProt Q9NRZ5) 0.067
ADSL (UniProt P30566) -0.012
ADGRV1 (UniProt Q8WXG9) -0.068
AHCY (UniProt P23526) -0.004
AKR1A1 (UniProt P14550) -0.078

Not a retest: entries from further up.
log2 fold change, inactive:
ADSS1 (UniProt Q8N142) 0.027
ALDH1L2 (UniProt Q3SY69) 0.034
AKT1S1 isoform 3 (UniProt Q96B36) 0.026
ALYREF (UniProt Q86V81) 0.09
AEBP2 (UniProt Q6ZN18) -0.031
AHCTF1 isoform 2 (UniProt Q8WYP5) -0.093
